Data as given in PubChem BioAssay AID1259293 (Sanger Institute, 2017)
Screen: 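Kinase knock-downs that boost cell killing by PI3K, EGFR or MEK drugs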 (follow-up of hits). Cells: human NCI-H716 colorectal cancer cells. Knock-down reagent: single siRNA against human genes. Treatment: anchor drugs BYL719 at 1 µM, cetuximab at 5 µg/ml or trametinib at 10 nM, or DMSO vehicle alone. Measured: 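For every anchor drug, viability versus control pool 2 (non-targeting) and a synergy score of drug with siRNA, each a replicate average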. Scale: synergy score with BYL719 and synergy score with cetuximab and synergy score with trametinib: higher = stronger synthetic lethal effect with drug. Hit rule: 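An siRNA is active if its synergy score is above 0.10 for one or more of the three anchor drugs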. Calls: active = synergy with at least one drug; inactive = no synergy with any drug.
This is one part, drawn at random, of 160 deposited reagents. Over the whole deposit, 46 (29%) are marked active. 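The method behind the synergy score is not described; each call refers to one siRNA in a single cell line.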 Entries without a mark were called inactive. The numbers tell different reagents against one gene apart. Not all columns of the deposit are shown. No sequences are given here. Not given: the amount of reagent, the time to read-out.

GTF2H1 (GeneID 2965) #1 → synergy score with BYL719 = -0.15; synergy score with cetuximab = -0.445; synergy score with trametinib = -0.246
GTF2H1 (GeneID 2965) #2 → synergy score with BYL719 = -0.136; synergy score with cetuximab = -0.204; synergy score with trametinib = -0.0743
GTF2H1 (GeneID 2965) #3 → synergy score with BYL719 = -0.342; synergy score with cetuximab = -0.286; synergy score with trametinib = -0.126
GTF2H1 (GeneID 2965) #4 → synergy score with BYL719 = 0.0299 (active); synergy score with cetuximab = -0.109; synergy score with trametinib = 0.143
CAMK2N1 (GeneID 55450) #1 → synergy score with BYL719 = 0.204 (active); synergy score with cetuximab = -0.0625; synergy score with trametinib = 0.165
CAMK2N1 (GeneID 55450) #2 → synergy score with BYL719 = 0.142 (active); synergy score with cetuximab = -0.374; synergy score with trametinib = -0.187
CAMK2N1 (GeneID 55450) #3 → synergy score with BYL719 = -0.0694; synergy score with cetuximab = -0.121; synergy score with trametinib = -0.0098
CAMK2N1 (GeneID 55450) #4 → synergy score with BYL719 = -0.375; synergy score with cetuximab = -0.219; synergy score with trametinib = -0.0428

Targets above whose target name starts with C or c:
CAMK2N1 (GeneID 55450) #1 → synergy score with BYL719 = 0.204 (active); synergy score with cetuximab = -0.0625; synergy score with trametinib = 0.165
CAMK2N1 (GeneID 55450) #2 → synergy score with BYL719 = 0.142 (active); synergy score with cetuximab = -0.374; synergy score with trametinib = -0.187
CAMK2N1 (GeneID 55450) #3 → synergy score with BYL719 = -0.0694; synergy score with cetuximab = -0.121; synergy score with trametinib = -0.0098
CAMK2N1 (GeneID 55450) #4 → synergy score with BYL719 = -0.375; synergy score with cetuximab = -0.219; synergy score with trametinib = -0.0428

More results follow:
AK2 (GeneID 204) #1 → synergy score with BYL719 = -0.189; synergy score with cetuximab = -0.229; synergy score with trametinib = -0.075
AK2 (GeneID 204) #2 → synergy score with BYL719 = -0.29; synergy score with cetuximab = 0.0359; synergy score with trametinib = 0.0527
AK2 (GeneID 204) #3 → synergy score with BYL719 = -0.111; synergy score with cetuximab = -0.272; synergy score with trametinib = 0.062
AK2 (GeneID 204) #4 → synergy score with BYL719 = -0.179; synergy score with cetuximab = -0.00815; synergy score with trametinib = 0.0886
STK36 (GeneID 27148) #1 → synergy score with BYL719 = 0.0131 (active); synergy score with cetuximab = -0.0995; synergy score with trametinib = 0.154
STK36 (GeneID 27148) #2 → synergy score with BYL719 = -0.244; synergy score with cetuximab = -0.179; synergy score with trametinib = -0.214
STK36 (GeneID 27148) #3 → synergy score with BYL719 = -0.253 (active); synergy score with cetuximab = -0.189; synergy score with trametinib = 0.117
STK36 (GeneID 27148) #4 → synergy score with BYL719 = -0.485; synergy score with cetuximab = -0.123; synergy score with trametinib = -0.175
